In assay [1] the target is T1, GST-BHP (BLUE LIGHT-… H+-ATPASE PHOSPHORYLATION, Raf-like protein kinase) (Arabidopsis thaliana) (UniProt Q93Z30).
T1 sequence: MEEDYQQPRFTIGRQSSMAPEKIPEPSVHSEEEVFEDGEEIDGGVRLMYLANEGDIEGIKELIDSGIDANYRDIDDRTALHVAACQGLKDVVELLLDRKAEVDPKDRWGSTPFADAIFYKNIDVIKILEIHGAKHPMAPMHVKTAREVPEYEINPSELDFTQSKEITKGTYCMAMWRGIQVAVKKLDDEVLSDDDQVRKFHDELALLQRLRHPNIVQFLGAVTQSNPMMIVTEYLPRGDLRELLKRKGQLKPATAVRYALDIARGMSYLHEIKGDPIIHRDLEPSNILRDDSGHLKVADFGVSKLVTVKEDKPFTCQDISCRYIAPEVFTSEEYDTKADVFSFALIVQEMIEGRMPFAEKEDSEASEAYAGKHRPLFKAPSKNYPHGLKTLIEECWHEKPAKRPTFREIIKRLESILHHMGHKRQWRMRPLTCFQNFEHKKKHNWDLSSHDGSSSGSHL
Put plainly: pull-down; supernatants of E. coli expressing GST-BHP and of E. coli expressing the FLAG protein mixed, 0.5% Triton X-100 in TBS with 5 mM DTT, glutathione-Sepharose 4B, 30 min at 4 °C; immunoblot with anti-GST and anti-FLAG. Background: In western blotting, separated proteins are transferred to a membrane and probed.

Protein sequences, listed by entry. Tags and fused reporters are not part of them.
UniProt O48963: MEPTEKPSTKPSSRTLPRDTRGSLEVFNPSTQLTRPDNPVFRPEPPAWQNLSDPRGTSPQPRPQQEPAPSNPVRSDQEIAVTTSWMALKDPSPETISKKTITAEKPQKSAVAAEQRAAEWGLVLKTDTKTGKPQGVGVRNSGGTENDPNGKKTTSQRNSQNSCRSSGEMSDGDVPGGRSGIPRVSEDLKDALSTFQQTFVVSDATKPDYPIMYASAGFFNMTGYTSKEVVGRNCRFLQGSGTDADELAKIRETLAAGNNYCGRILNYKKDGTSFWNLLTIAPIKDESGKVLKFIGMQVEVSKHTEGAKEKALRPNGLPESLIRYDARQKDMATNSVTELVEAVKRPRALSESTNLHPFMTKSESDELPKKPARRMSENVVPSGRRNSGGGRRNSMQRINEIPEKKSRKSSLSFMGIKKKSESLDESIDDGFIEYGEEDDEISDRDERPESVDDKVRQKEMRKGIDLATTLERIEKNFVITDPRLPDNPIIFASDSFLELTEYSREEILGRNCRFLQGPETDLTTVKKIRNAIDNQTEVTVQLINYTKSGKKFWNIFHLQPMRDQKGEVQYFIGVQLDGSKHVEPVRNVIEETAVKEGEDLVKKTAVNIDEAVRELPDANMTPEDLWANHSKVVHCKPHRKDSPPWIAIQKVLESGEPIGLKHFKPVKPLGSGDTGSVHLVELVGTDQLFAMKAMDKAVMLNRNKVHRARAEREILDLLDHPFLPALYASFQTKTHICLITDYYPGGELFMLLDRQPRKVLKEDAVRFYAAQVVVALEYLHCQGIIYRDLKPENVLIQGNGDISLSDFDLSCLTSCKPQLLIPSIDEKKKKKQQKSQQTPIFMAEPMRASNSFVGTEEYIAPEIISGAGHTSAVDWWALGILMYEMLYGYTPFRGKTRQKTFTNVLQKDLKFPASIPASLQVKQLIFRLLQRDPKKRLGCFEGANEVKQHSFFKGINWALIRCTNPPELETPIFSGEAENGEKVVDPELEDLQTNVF
UniProt P48484: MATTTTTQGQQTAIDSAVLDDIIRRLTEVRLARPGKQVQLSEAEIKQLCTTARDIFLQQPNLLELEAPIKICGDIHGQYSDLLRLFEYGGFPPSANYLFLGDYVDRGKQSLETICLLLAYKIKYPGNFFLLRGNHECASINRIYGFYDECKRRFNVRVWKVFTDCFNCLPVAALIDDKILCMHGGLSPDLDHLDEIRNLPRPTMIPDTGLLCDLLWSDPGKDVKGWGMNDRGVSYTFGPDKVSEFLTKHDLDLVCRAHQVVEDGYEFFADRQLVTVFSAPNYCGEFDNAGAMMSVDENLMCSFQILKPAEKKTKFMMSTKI
UniProt P93025: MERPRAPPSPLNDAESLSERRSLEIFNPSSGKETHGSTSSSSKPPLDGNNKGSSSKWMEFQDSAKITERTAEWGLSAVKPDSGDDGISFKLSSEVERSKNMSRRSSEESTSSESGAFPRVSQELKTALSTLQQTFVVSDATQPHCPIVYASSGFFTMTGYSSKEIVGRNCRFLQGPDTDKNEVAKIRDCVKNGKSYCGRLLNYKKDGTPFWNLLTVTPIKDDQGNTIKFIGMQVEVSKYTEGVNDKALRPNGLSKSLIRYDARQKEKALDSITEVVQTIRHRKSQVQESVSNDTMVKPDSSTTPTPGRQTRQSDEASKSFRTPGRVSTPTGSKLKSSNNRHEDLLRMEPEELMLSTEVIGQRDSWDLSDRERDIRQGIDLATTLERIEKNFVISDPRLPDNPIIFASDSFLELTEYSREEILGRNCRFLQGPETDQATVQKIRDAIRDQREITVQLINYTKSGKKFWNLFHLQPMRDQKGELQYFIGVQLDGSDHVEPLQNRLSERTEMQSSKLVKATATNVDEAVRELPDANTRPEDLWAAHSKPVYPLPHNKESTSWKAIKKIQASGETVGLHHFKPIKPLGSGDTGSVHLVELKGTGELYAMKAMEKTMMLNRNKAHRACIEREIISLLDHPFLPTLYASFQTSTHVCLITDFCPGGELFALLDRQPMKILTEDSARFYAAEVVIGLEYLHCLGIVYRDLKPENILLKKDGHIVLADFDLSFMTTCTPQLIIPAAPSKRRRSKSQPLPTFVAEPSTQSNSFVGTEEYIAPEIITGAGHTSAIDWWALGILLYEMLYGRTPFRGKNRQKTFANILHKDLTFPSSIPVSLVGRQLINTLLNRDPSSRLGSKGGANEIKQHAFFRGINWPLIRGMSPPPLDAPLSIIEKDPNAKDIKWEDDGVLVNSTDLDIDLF

Assay [2] addresses BHP fused to a half of YFP (BiFC construct) (Arabidopsis thaliana) (UniProt Q93Z30). Put plainly: split reporter; BiFC with halves of YFP (pSPYNE173, pSPYCE(M)) in Nicotiana benthamiana leaves, with the p19 silencing suppressor; confocal microscopy 4 days after infiltration.
Assay [3] addresses phot1, autophosphorylated after blue light, from etiolated seedlings (Arabidopsis thaliana (endogenous in etiolated seedlings)) (UniProt O48963). Kind of assay: far-Western, overlay or dot blot; protein blotting with GST-14-3-3 (GF14ϕ) as a probe on extracts of etiolated seedlings resolved by SDS-PAGE; seedlings with or without blue light 100 μmol m^-2 s^-1 for 1 min, with DMSO or kinase inhibitors.

Results are given in words; binding and its absence hold for the method and conditions named. For some assays here: Binding seen in cells or lysates may run through a third protein. Some results given as binding are weak or reduced against the parent protein; the word gives no strength. Tags and fused reporters may be left off the sequences shown.

Five molecules from publication PMC5372365 can be followed below.

For “FLAG-PP1 (TYPE ONE PROTEIN PHOSPHATASE 4, TOPP4) (from UniProt P48484 1-321)”, in assay [1], the binding entry is on record as “binds”.

In the case of “phot2 fused to a half of YFP (BiFC construct) (from UniProt P93025 1-915)”, the binding entry in assay [2] is “binds”.

B1: FLAG-BLUS1 (BLUE LIGHT …1) (protein, UniProt O23304 1-487)
chain: MARNKLEFPLDAEAYEIICKIGVGVSASVYKAICIPMNSMVVAIKAIDLDQSRADFDSLRRETKTMSLLSHPNILNAYCSFTVDRCLWVVMPFMSCGSLHSIVSSSFPSGLPENCISVFLKETLNAISYLHDQGHLHRDIKAGNILVDSDGSVKLADFGVSASIYEPVTSSSGTTSSSLRLTDIAGTPYWMAPEVVHSHTGYGFKADIWSFGITALELAHGRPPLSHLPPLKSLLMKITKRFHFSDYEINTSGSSKKGNKKFSKAFREMVGLCLEQDPTKRPSAEKLLKHPFFKNCKGLDFVVKNVLHSLSNAEQMFMESQILIKSVGDDDEEEEEEDEEIVKNRRISGWNFREDDLQLSPVFPATESDSSESSPREEDQSKDKKEDDNVTITGYELGLGLSNEEAKNQEGEVVGFDKDLVLEKLKVLKKSLEHQRARVSIIIEALSGDKEEKSREEELLEMVEKLKIELETEKLKTLRADKDSVLG
Regarding B1, the binding result in assay [1] was “binds”.

B2: BLUS1 fused to a half of YFP (BiFC construct) (protein, UniProt O23304 1-487)
chain: B1 chain
Consider B2, for which the binding entry in assay [2] was “binds”.

B3: GST-14-3-3 protein (GF14ϕ) (protein, UniProt P46077 1-267)
chain: MAAPPASSSAREEFVYLAKLAEQAERYEEMVEFMEKVAEAVDKDELTVEERNLLSVAYKNVIGARRASWRIISSIEQKEESRGNDDHVTTIRDYRSKIESELSKICDGILKLLDTRLVPASANGDSKVFYLKMKGDYHRYLAEFKTGQERKDAAEHTLTAYKAAQDIANAELAPTHPIRLGLALNFSVFYYEILNSPDRACNLAKQAFDEAIAELDTLGEESYKDSTLIMQLLRDNLTLWTSDMQDESPEEIKEAAAPKPAEEQKEI
As to B3, the binding entry in assay [3] was “binds”.
